Results reported in patent US8741840B2, “BMP-7 for use in treating neointimal hyperplasia” (Washington University, priority 2008, dated 2014).

B1: BMP-7: bone morphogenetic protein-7 (osteogenic protein-1), mineralization-countering morphogen; provided by Johnson and Johnson (protein, listed as Homo sapiens)
chain: STGSKQRSQNRSKTPKNQEALRMANVAENSSSDQRQACKKHELYVSFRDLGWQDWIIAPEGYAAYYCEGECAFPLNSYMNATNHAIVQTLVHFINPETVPKPCCAPTQLNAISVLYFDDSSNVILKKYRNMVVRACGCH

Test: Blood tests: serum biochemical parameters in the various groups of animals
Type: in vivo, mouse
Settings: LDLR-/-, fat diet, CKD, 28 weeks post natal, BMP-7 10 μg/kg IP weekly or binder 3% in diet

Molecule | BUN [mg/dL] | Calcium | Glucose [mg/dL] | Cholesterol [mg/dL]
O=C([O-])[O-].[Ca+2] [CaCO3] | 58 ± 10.625 | 6.9 ± .589 mg/dL | 124 ± 13.2 | 
O=C([O-])[O-].O=C([O-])[O-].O=C([O-])[O-].[La+3].[La+3] [Lanthanum, LaCO3] | 40 ± 5.3 | 8.2 ± .3 mg/dL | 201 ± 19 | 889 ± 80
B1 | 52.50 ± 5.172 | 8.37 ± .229 mg/dL | 191 ± 13.8 | 911.6 ± 93.7
